Here are results for one molecule from paper PMC3762802.

These are yes or no findings as the source states them, for the method shown. Binding seen in cells or lysates may run through a third protein. Some entries that bind do so weakly or less than the wild type.

Assay [1] deals with T1, eIF2Bε-S535A mutant transgene (UniProt Q64350).
T1 sequence: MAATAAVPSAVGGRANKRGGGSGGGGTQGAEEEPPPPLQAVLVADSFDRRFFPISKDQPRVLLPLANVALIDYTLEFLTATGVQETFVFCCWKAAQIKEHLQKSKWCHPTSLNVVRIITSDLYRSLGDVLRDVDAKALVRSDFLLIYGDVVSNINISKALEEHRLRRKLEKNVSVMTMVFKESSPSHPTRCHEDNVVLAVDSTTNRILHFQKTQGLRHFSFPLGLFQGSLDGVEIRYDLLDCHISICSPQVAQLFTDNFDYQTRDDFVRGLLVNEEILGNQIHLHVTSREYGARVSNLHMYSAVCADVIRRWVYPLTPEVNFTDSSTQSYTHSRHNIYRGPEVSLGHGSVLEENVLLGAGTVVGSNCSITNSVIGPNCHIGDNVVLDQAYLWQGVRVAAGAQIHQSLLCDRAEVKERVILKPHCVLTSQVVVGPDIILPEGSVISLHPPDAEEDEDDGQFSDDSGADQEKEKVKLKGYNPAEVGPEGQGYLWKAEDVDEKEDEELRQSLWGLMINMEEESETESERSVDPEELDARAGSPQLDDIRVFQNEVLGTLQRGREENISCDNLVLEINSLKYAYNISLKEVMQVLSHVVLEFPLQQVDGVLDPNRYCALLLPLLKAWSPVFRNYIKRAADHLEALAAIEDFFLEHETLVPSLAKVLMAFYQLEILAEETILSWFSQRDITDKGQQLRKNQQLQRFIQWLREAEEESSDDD
Description: co-IP; left ventricular tissue lysates (Pierce IP lysis buffer) pre-cleared with G-Sepharose, eIF2Bε monoclonal antibody 4 h at 4°C, Protein G-Sepharose 4 h at 4°C, washed 4-5 times, western blot; negative control without primary antibody. In general terms: Immunoblotting shows a protein as a band on a membrane.

Assay [2] concerns the target T2, Eukaryotic initiation factor 2B epsilon subunit (eIF2Bε), wild-type transgene (UniProt Q64350).
T2 sequence: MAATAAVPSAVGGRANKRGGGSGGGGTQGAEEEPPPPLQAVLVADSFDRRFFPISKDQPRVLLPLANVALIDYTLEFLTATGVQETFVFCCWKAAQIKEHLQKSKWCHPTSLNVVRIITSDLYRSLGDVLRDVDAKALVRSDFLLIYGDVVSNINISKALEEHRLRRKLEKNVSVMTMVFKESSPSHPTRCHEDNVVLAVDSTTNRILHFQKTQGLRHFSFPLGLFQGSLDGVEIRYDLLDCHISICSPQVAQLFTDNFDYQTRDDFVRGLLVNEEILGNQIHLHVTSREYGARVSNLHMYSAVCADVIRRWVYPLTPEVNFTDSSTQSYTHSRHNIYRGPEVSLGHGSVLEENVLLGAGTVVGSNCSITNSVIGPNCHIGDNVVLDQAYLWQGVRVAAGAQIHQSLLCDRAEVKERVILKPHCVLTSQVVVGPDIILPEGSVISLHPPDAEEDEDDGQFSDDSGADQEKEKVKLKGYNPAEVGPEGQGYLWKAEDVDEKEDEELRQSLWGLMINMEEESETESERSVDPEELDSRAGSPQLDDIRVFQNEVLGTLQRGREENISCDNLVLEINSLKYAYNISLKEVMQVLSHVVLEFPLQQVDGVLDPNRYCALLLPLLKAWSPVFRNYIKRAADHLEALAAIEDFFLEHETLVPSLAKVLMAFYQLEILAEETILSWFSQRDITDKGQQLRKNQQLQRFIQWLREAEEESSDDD
The description is as above.

B1: Dual specificity tyrosine-phosphorylation-regulated kinase 2 (DYRK2) (enzyme, UniProt Q5U4C9 1-599)
chain: MLTRKPSAAAPAAYPTGRGGDTAVRQLQASPGIGAGAPRSGVGTGPPSPIALPPLRASNATTTAHTIGGSKHTMNDHLHLNSHGQIQVQQLFEDNSNKRTVLTTQPNGLTTVGKTGLPGVPERQLESIHRRQGSSTSLKSMEGMGKVKASPMTPEQAMKQYMQKLTAFEHHEIFSYPEIYFLGPNAKKRQGMTGGPNNGGYDDDQGSYVQVPHDHVAYRYEVLKVIGKGSFGQVVKAYDHKVHQHVALKMVRNEKRFHRQAAEEIRILEHLRKQDKDNTMNVIHMLENFTFRNHICMTFELLSMNLYELIKKNKFQGFSLPLVRKFAHSILQCLDALHKNRIIHCDLKPENILLKQQGRSSIKVIDFGSSCYEHQRVYTYIQSRFYRAPEVILGARYGMPIDMWSLGCILAELLTGYPLLPGEDEGDQLACMIELLGMPSQKLLDASKRAKNFVSSKGYPRYCTVTTLSDGSVVLNGGRSRRGKLRGPPESREWGNALKGCDDPLFLDFLKQCLEWDPAVRMTPGQALRHPWLRRRLPKPPTGEKTAVKRVTESTGAITSISKLPPPSSSASKLRTNLAQMTDANGNIQQRTVLPKLVS
As for B1, the binding entry in assay [1] and in assay [2] was “binds” in each case.
